The source of these data is patent US4640910A (Abbott Laboratories, priority 1985, dated 1987).

The nature of this series: Taste test of aqueous suspensions by four tasters. The conditions noted are these: for aftertaste reported by one taster: about two hours after tasting, one of four tasters; for taste: suspended in water, four tasters.

For `CC[C@H]1OC(=O)[C@H](C)[C@@H](O[C@H]2C[C@@](C)(OC)[C@@H](O)[C@H](C)O2)[C@H](C)[C@@H](O[C@@H]2O[C@H](C)C[C@H](N(C)C)[C@H]2O[Si](C)(C)C)[C@](C)(OC)C[C@@H](C)C(=O)[C@H](C)[C@@H](O)[C@]1(C)O` [Example 3, 2'-O-trimethylsilyl-6-O-methyl-Erythromycin A], the “aftertaste reported by one taster” value is “slight saline taste” and the taste result is on record as “virtually tasteless”.
In the case of `CC[C@H]1OC(=O)[C@H](C)[C@@H](O[C@H]2C[C@@](C)(OC)[C@@H](O)[C@H](C)O2)[C@H](C)[C@@H](O[C@@H]2O[C@H](C)C[C@H](N(C)C)[C@H]2O[Si](C)(C)C)[C@](C)(O)C[C@@H](C)C(=O)[C@H](C)[C@@H](O)[C@]1(C)O` [Example 2, 2'-O-Trimethylsilyl Erythromycin A], the “aftertaste reported by one taster” value is recorded as “slight saline taste” and the taste entry is “virtually tasteless”.
